Data published in patent publication US20180334496A1.
Results are given in words; binding and its absence hold for the method and conditions named. Some results given as binding are weak or reduced against the parent protein; the word gives no strength.

Chains of the proteins cited; added tags and fusions are not shown. Lines headed by an entry give the natural chain unless they say otherwise; changes in a name come on top.
UniProt P00746: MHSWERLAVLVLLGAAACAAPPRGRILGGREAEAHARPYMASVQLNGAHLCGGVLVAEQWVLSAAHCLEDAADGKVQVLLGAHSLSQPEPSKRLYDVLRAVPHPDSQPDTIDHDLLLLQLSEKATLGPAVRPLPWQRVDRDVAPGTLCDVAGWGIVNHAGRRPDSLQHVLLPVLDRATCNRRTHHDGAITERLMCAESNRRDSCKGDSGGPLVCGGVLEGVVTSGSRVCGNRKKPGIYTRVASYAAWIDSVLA

Target: recombinant human CFD mutant 1 (R157A, R207A), His-tagged (human) (UniProt P00746)
Test: ELISA, Mut1 Binding

B1: KCD047 (antibody, V domains shown)
VH: EVQLQQSGAEFVKPGASVRLSCTASGFNIKDTYMHWVKQRPEQGLEWIGRIDPANGYTKDDPKFQGKATITADTSSNTAYLQLSSLTSEDTAVYYCASAMDYWGQGTSVTVSS
VL: QIVLTQSPAVMSASPGEKVAMTCSASSSVTYMYWYQQKPGSSPRLLIYDTSNLASGVPVRFSGSGSGTSYSLTISRMEAEDAATYYCQQWSTYPFPFGSGTKLEIK
Question: B1 was tested. Which binding did it give?
Answer: binds

B2: KCD214 (antibody, V domains shown)
VH: EVQLQQSVAEFVRPGASVKLSCTASGFNIKNTYMHWVKQRPEQGLEWIGRIDPANGNTEYAPKFQGKATITADTSSNTAYLQLSSLTSEDTAIYYCALYDYDGYWGQGTTLTVSS
VL: EIVLTQSPALMAASPGEKVTITCRVSSSISSSSLHWYQQKSGTSPKPWIYGTSNLASGVPVRFSGSRSGTSYSLTISSMEAEDAATYYCQQWSDYPWTFGGGTKLEIK
Question: B2 was tested. Which binding did it give?
Answer: binds
